Results published in patent US20050101542A1, “Combination therapy for controlling appetites” (Regents of the University of California, priority 2002, published 2005).

Test: Plasma hormone levels by radioimmunoassay
Format: in vivo, rat
Settings: 60 min after OEA 20 mg per kg i.p.
Protocol: Blood chemistry. Plasma β-hydroxybutyrate and glycerol were measured using commercial kits (Sigma, St. Louis, Mo.). Plasma prolactin, corticosterone and luteinizing hormone were quantified by radioimmunoassay (Navarro, et al., Neuroreport, 8:491-496 (1997)).

CCCCCCCC/C=C\CCCCCCCC(=O)NCCO [OEA, Z-2-hydroxyethyl octadec-9-enamide]
plasma corticosterone (B): 280 ± 61 ng per ml
plasma luteinizing hormone (LH): 6.2 ± 1.5 ng per ml
plasma prolactin (PRL): 8.2 ± 3.2 ng per ml
